Measurements taken from publication PMC3401106.
No constants are given. Whether binding was seen depends on the method and setting. Binding seen in cells or lysates may run through a third protein. Some entries that bind do so weakly or less than the wild type. Where a sequence is shown, tags or fusion partners need not be part of it.

Target: A. thaliana leucine zipper bZIP63 fused to YFPN and YFPC (Arabidopsis thaliana) (UniProt B9DGI8)
Test: split reporter; BiFC in A. thaliana mesophyll protoplasts; fusions to YFPN (pUC-SPYNE) and YFPC (pUC-SPYCE) co-transfected; 16 h in the dark at 22 C; confocal microscopy

B1: A. thaliana leucine zipper bZIP63 fused to YFPN and YFPC (protein, UniProt B9DGI8 1-314)
chain: MEKVFSDEEISGNHHWSVNGMTSLNRSASEWAFNRFIQESSAAADDGESTTACGVSVSSPPNVPVDSEEYRAFLKSKLNLACAAVAMKRGTFIKPQDTSGRSDNGGANESEQASLASSKATPMMSSAITSGSELSGDEEEADGETNMNPTNVKRVKRMLSNRESARRSRRRKQAHLSELETQVSQLRVENSKLMKGLTDVTQTFNDASVENRVLKANIETLRAKVKMAEETVKRLTGFNPMFHNMPQIVSTVSLPSETSNSPDTTSSQVTTPEIISSGNKGKALIGCKMNRTASMRRVESLEHLQKRIRSVGDQ
- binding: binds
